PubChem BioAssay AID1224826 | NIAID, 2016

Aim: 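Knock-downs that raise or lower Tnf reporter signal after endotoxin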 (primary screen)
Cell system: RAW264.7 G9 macrophages from mouse bearing reporters for p65 (GFP) and the Tnf promoter (mCherry)
Reagent: siRNA pool against mouse genes, 100 nM
Time to read-out: 16 h of LPS stimulation, after 2 days of siRNA transfection
Treatment: bacterial lipopolysaccharide (Salmonella minnesota R595), 10 ng/ml
Detection: 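Imaged Tnf reporter mCherry in nuclei, minus background, normalised per plate to the median and expressed as robust z-scores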
Direction: Tnf reporter robust z-score: higher = stronger Tnf promoter reporter signal after LPS
Call rule: 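Called active when robust z-score is at most -1.3, matching the median of the Tlr4 knock-down control, or over 3; control wells and wells with under 50 cells never active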
Calls: active = Tnf reporter clearly lowered or raised; inactive = no clear change in Tnf reporter
This is a random part of about 17,000 deposited reagents. About 1,110 of them (6.6%) count as active. 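Active means lowered or raised reporter signal; replicate intensities are raw and not normalised per plate.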 Further read-outs or replicates are left out here.

gene	Tnf reporter robust z-score	fewer than 50 cells in well	Outcome
Acrbp (GeneID 54137)	-0.48	enough cells in well	inactive
Cd38 (GeneID 12494)	0.9	enough cells in well	inactive
Zranb1 (GeneID 360216)		fewer than 50 cells per well; well left out of calls	inactive
Tasp1 (GeneID 75812)		fewer than 50 cells per well; well left out of calls	inactive
Casp3 (GeneID 12367)	-0.03	enough cells in well	inactive
Or2bd2 (GeneID 257882)		fewer than 50 cells per well; well left out of calls	inactive
Nfkb2 (GeneID 18034)	0.47	enough cells in well	inactive
Lmbrd1 (GeneID 68421)	1.35	enough cells in well	inactive
Mybl1 (GeneID 17864)	-0.44	enough cells in well	inactive
Or2o1 (GeneID 258273)	-0.16	enough cells in well	inactive
Mylk3 (GeneID 213435)	-1.33	enough cells in well	active
Cln8 (GeneID 26889)	-0.41	enough cells in well	inactive
Reps1 (GeneID 19707)	0.18	enough cells in well	inactive
Zfp810 (GeneID 235050)	-0.8	enough cells in well	inactive
Sfxn2 (GeneID 94279)	-0.57	enough cells in well	inactive
Nudcd2 (GeneID 52653)	-0.44	enough cells in well	inactive
Rabgef1 (GeneID 56715)	0.06	enough cells in well	inactive
Rhobtb1 (GeneID 69288)	-0.46	enough cells in well	inactive
Fbxl14 (GeneID 101358)	0.32	enough cells in well	inactive
Rflna (GeneID 73121)	1.6	enough cells in well	inactive
Or6c202 (GeneID 258540)		fewer than 50 cells per well; well left out of calls	inactive
Nrm (GeneID 106582)	0.28	enough cells in well	inactive
Ahnak (GeneID 66395)		fewer than 50 cells per well; well left out of calls	inactive
Krtap26-1 (GeneID 69533)		fewer than 50 cells per well; well left out of calls	inactive
Nceh1 (GeneID 320024)	-0.73	enough cells in well	inactive
Or1j18 (GeneID 258945)	0.48	enough cells in well	inactive
Fkbp6 (GeneID 94244)	0.91	enough cells in well	inactive
Arl8a (GeneID 68724)	-0.49	enough cells in well	inactive
Lrrtm4 (GeneID 243499)	-1.09	enough cells in well	inactive
Pja2 (GeneID 224938)	2.78	enough cells in well	inactive
Pcdhga4 (GeneID 93712)	-0.65	enough cells in well	inactive
Tgfbr2 (GeneID 21813)	0.64	enough cells in well	inactive
Notum (GeneID 77583)	-0.2	enough cells in well	inactive
Or55b4 (GeneID 257926)	-0.47	enough cells in well	inactive
Defb41 (GeneID 77673)	2.58	enough cells in well	inactive
Vmn1r14 (GeneID 113864)	3.76	enough cells in well	active
Ckm (GeneID 12715)	-0.14	enough cells in well	inactive
Rnf187 (GeneID 108660)	-0.8	enough cells in well	inactive
Zfp282 (GeneID 101095)	2.62	enough cells in well	inactive
Tdrp (GeneID 72148)	-0.59	enough cells in well	inactive
Tlr5 (GeneID 53791)	-0.07	enough cells in well	inactive
Laptm4a (GeneID 17775)	1.46	enough cells in well	inactive
Slc46a2 (GeneID 30936)	-0.3	enough cells in well	inactive
Mrpl28 (GeneID 68611)	-0.87	enough cells in well	inactive
Ntrk2 (GeneID 18212)	0.22	enough cells in well	inactive
Usp5 (GeneID 22225)	-0.62	enough cells in well	inactive
Git2 (GeneID 26431)	-0.3	enough cells in well	inactive
Phf12 (GeneID 268448)	0.7	enough cells in well	inactive
Gal3st2 (GeneID 381334)	-1.7	enough cells in well	active
Zfp446 (GeneID 269870)	0.62	enough cells in well	inactive
Ttc34 (GeneID 242800)	0.48	enough cells in well	inactive
Vdr (GeneID 22337)	-0.3	enough cells in well	inactive
Zfp696 (GeneID 100043133)	2.24	enough cells in well	inactive
Hemk2 (GeneID 67768)	0.75	enough cells in well	inactive
Irgm1 (GeneID 15944)	0.64	enough cells in well	inactive
Slc2a4 (GeneID 20528)	0.02	enough cells in well	inactive
D16Ertd472e (GeneID 67102)	-0.71	enough cells in well	inactive
Rab25 (GeneID 53868)	0.56	enough cells in well	inactive

Records listed so far called active (3):
gene	Tnf reporter robust z-score	fewer than 50 cells in well	Outcome
Mylk3 (GeneID 213435)	-1.33	enough cells in well	active
Vmn1r14 (GeneID 113864)	3.76	enough cells in well	active
Gal3st2 (GeneID 381334)	-1.7	enough cells in well	active
